{"source": "paper PMC12209930", "about": "“A TATA-box-binding protein binds single-stranded DNA in two modes: To poly(G) tracts and to flexible DNA regions”", "key": {"[1]": {"target": "T1, gTBP (GST-gTBP) (Giardia intestinalis WB C6 (ATCC 50803)) (UniProt E2RU70)", "T1 sequence (looked up)": "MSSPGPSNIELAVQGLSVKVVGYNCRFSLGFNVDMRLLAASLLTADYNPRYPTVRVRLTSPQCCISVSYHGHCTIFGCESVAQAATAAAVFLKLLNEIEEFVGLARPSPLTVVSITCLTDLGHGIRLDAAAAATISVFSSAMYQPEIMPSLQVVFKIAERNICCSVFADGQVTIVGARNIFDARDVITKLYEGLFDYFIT", "experiment": "EMSA", "conditions": "titration of complementary strand, annealed; 10 mM Tris-HCl pH 8.0, 0.15 M NaCl, 0.5 mM TCEP, 5% glycerol, 1 ug/ul BSA, 15 ng/ul salmon sperm DNA, 30 min on …; probe 0.1 pmol/ul, competitor 200-fold excess; recombinant protein; residues 1-200; protein details: N-terminal GST; label: 5'Cy5 on one strand"}, "[2]": {"target": "T1, gTBP (GST-gTBP) (Giardia intestinalis WB C6 (ATCC 50803))", "experiment": "competition with a labelled probe", "conditions": "10 mM Tris-HCl pH 8.0, 0.15 M NaCl, 0.5 mM TCEP, 5% glycerol, 1 ug/ul BSA, 15 ng/ul salmon sperm DNA, 30 min on ice, probe 0.1 pmol/ul, competitor 200-fold excess, recombinant protein, residues 1-200, protein details: N-terminal GST, single-stranded DNA"}, "[3]": {"tested_on": "GST", "experiment": "EMSA", "conditions": "GST alone; 10 mM Tris-HCl pH 8.0, 0.15 M NaCl, 0.5 mM TCEP, 5% glycerol, 1 ug/ul BSA, 15 ng/ul salmon sperm DNA, 30 min on ice; probe 0.1 pmol/ul, competitor 200-fold excess; recombinant protein; label: 5'Cy5 (probe), unlabeled as competitor; single-stranded DNA"}}, "note": "For some assays here: Negatives hold for the conditions tested. For some assays here: Protein sequences can lack the tags named with them. For some assays here: The comparison behind a weaker result is the experiment's own reference, which may not be listed here. For some assays here: The exact form of at least one protein or probe is not confirmed."}
{"sequence": "TAGAAGTGCACAGGGGCGCAGATTTCGGCTGCGGAAGGGGGGAAAAAGCGGGCGGGAAAGAAAT (double strand) [H2B duplex]", "values": [{"measurement": "binding result", "setting": "[1]", "result": "binds more weakly"}]}
{"sequence": "TAGAAGTGCACAGGGGCGCAGATTTCGGCTGC [H2B-a Left (L)]", "values": [{"measurement": "binding result", "setting": "[2]; vs H2B-a probe", "result": "binds more weakly"}]}
{"sequence": "TTTTTTTTTTTTTTTTTTTTTTTTTTTTTT [polyT(30)]", "values": [{"measurement": "binding result", "setting": "[2]; vs H4-a and H2B-a probes", "result": "no binding"}]}
{"sequence": "CATTTTTATTTGCCCCTTCCCGCGTCTTCTTTTTTAGCCCAAATCTGCGCCCTAC [H4-b]", "values": [{"measurement": "binding result", "setting": "[3]", "result": "no binding"}]}
{"sequence": "GTAGGGCGCAGATTTGGGCTAAAAAAGAAGACGCGGGAAGGGGCAAATAAAAATG (double strand) [H4 duplex]", "values": [{"measurement": "binding result", "setting": "[1]", "result": "binds more weakly"}]}
